Holding throughout (assay): co-IP; HEK293(hGHR) cells transfected with FLAG- and Myc-tagged STAT5B WT or variant plasmids, untreated or GH-stimulated (100 ng/ml, 30 min); 300 ug whole-cell lysate, immunoprecipitation with anti-Myc sepharose beads, immunoblot
Experiment [1] addresses STAT5B p.Ala478Val (human) (UniProt P51692).
Experiment [2] deals with STAT5B p.Gln177Pro (human) (UniProt P51692).
Experiment [3] deals with STAT5B p.Gln474Arg (human) (UniProt P51692).

By UniProt entry, the sequences of proteins in these tests, tags left out. Where a name states a change or a piece, a line headed by the entry shows the natural chain unless it says otherwise. Chains listed by the source or under a name are the forms on record and can include a tag or linker.
UniProt P51692: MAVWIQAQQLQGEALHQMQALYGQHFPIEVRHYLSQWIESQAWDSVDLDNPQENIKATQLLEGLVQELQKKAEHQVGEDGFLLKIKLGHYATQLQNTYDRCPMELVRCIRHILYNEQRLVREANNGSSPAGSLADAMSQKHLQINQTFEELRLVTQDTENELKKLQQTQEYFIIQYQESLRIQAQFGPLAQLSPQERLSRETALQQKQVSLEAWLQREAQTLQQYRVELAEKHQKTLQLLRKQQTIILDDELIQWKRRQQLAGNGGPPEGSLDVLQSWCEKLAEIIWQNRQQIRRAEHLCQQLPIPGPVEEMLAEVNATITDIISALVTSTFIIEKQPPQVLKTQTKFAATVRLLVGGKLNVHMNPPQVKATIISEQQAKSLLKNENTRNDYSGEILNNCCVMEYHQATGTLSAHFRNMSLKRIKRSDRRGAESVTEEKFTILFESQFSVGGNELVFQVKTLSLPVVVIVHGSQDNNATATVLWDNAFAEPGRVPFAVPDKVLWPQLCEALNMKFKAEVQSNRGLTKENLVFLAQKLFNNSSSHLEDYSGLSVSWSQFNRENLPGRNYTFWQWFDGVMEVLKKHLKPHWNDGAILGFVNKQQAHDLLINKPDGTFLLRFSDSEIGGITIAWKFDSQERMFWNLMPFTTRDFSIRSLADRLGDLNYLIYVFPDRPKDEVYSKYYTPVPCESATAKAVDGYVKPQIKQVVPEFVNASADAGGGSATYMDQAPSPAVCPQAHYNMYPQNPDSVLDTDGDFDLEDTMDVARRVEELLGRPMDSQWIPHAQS
STAT5B p.Ala478Val (P51692, form named): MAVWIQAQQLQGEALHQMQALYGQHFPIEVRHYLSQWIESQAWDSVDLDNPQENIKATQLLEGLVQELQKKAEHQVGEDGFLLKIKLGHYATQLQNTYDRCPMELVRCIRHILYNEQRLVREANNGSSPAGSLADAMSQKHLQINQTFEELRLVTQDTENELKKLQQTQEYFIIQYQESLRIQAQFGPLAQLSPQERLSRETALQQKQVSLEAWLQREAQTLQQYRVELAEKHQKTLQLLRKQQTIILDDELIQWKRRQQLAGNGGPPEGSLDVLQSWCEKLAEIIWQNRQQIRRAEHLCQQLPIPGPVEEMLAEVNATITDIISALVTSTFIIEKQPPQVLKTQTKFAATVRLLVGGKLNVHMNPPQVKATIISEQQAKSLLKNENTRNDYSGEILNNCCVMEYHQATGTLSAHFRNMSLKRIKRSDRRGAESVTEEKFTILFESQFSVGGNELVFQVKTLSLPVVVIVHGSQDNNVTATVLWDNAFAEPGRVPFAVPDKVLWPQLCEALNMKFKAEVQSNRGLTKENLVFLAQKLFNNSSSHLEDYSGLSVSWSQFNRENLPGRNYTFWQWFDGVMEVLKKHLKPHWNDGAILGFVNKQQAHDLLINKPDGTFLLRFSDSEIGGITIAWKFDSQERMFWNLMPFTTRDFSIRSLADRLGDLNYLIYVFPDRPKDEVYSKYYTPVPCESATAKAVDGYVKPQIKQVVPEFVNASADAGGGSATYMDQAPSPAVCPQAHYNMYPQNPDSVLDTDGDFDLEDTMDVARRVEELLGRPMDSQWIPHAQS
STAT5B p.Gln177Pro (P51692, form named): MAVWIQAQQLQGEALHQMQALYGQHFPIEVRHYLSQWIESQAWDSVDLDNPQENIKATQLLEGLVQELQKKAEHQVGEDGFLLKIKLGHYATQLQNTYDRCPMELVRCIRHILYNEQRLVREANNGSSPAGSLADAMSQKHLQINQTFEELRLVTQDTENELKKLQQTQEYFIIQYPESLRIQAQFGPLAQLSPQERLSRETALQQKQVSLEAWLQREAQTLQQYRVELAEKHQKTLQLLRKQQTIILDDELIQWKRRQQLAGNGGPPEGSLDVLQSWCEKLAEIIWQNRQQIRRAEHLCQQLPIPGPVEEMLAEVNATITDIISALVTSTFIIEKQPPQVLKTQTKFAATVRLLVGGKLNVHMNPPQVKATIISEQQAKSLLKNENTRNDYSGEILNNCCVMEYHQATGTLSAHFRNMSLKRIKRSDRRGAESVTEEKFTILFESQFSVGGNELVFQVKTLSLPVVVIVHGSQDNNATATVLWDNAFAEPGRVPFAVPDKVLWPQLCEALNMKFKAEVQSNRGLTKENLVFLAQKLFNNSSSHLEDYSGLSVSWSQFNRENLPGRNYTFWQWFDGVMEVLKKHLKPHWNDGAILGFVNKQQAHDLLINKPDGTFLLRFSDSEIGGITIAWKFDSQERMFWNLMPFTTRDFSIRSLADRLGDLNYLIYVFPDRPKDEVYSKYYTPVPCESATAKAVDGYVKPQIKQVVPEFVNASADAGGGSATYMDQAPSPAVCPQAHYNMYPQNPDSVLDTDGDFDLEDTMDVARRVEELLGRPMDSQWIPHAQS
STAT5B p.Gln474Arg (P51692, form named): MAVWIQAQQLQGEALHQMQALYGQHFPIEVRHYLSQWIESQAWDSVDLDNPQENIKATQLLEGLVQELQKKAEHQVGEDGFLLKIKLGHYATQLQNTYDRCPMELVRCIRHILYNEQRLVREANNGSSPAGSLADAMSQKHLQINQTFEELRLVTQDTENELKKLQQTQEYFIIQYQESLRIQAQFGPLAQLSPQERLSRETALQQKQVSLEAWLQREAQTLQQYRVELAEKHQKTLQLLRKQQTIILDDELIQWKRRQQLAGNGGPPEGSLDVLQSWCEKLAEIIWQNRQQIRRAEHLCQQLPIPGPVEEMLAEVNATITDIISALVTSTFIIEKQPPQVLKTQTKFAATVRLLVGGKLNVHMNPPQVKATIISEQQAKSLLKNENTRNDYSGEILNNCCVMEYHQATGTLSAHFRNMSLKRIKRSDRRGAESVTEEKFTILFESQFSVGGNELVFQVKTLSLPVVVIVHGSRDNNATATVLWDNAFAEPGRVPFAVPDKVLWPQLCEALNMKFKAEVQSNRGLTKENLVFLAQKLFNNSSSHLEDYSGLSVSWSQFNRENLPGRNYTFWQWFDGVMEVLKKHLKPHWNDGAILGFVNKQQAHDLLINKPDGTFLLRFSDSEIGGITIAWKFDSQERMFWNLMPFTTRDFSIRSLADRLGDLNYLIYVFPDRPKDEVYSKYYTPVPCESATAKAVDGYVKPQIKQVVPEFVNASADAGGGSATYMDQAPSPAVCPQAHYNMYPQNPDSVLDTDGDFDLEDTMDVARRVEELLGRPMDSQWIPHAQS

No constants are given. Whether binding was seen depends on the method and setting. Binding seen in cells or lysates may run through a third protein. Some binding calls cover weakened binding; strength is not graded here.

“STAT5B p.Ala478Val (from UniProt P51692 1-787)”: the binding result in experiment [1] is “binds”.
For the substance “signal transducer and activator of transcription 5B (STAT5B), wild type (from UniProt P51692 1-787)”, the binding entry in experiment [2], in experiment [3] and in experiment [1] was “binds” in each case.
Consider “STAT5B p.Gln474Arg (from UniProt P51692 1-787)”, for which, in experiment [3], the binding result is “binds”.
For the substance “STAT5B p.Gln177Pro (from UniProt P51692 1-787)”, the binding entry in experiment [2] is listed as “binds”.

For the origin of these results see article PMC5974024.
